Data as given in publication PMC11322524.
The exact form of at least one protein or probe is not confirmed.

Chains of the proteins cited; added tags and fusions are not shown. Chains listed by the source or under a name are the forms on record and can include a tag or linker.
MdWRKY24 (Malus domestica), one chain, as listed by the source: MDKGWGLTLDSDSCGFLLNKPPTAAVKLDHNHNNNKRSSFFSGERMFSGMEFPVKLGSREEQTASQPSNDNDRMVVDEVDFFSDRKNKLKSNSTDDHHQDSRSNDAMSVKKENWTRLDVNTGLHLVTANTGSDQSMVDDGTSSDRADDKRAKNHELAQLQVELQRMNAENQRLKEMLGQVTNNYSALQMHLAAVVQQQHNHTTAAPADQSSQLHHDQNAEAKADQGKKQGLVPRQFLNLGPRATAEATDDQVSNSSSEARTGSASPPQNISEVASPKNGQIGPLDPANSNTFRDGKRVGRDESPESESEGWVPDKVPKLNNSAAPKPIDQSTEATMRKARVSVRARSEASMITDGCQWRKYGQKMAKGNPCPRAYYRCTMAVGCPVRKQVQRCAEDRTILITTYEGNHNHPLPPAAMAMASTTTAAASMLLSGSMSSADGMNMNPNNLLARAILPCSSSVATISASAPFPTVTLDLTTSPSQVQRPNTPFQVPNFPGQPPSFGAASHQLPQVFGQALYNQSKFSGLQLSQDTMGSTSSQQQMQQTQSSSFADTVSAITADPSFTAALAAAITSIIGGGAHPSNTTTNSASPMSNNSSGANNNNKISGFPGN

Tested on: MdWRKY24 (Malus domestica)
Experiment: EMSA
Conditions: LightShift Chemiluminescent EMSA Kit (Thermo Fisher), pH and temperature not stated, recombinant protein, protein details: GST (N-terminal, pGEX-4T-1), label: 5' biotin

Row | Sequence | binding result (binding decreased with increasing competitor probe) | binding result
1 | ACTTATATTGCTTGACTCTTCTCTTTAA (double strand) [MdSDH1 promoter W-box probe] | binds | 
2 | ATGATTTTTGACCAAACGATGTACG (double strand) [MdGASA1 promoter W-box probe] |  | binds
